Test results published in the supplement of paper PMC12823440, “Inhibitors supercharge kinase turnover through native proteolytic circuits” (Nature, 2025).
Structures can show the parent of a compound that is named as a salt. The list shows a part of the results. The calls rarely recur for the same compound in another form.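 In K562 cells expressing nanoluciferase-fused kinases, luminescence was recorded at 4 h intervals between 2 and 18 h, normalized as percent of control with DMSO at 100% and a positive control at 0%. A significant (2 sigma) signal drop marks a time point as decreased. The authors' rule for a hit is not shown and takes in more than the number of time points.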

Amino acid sequences for entries named in this document (tags omitted). A change or cut given only in a name is not applied to a line headed by its entry.
UniProt Q8IWU2: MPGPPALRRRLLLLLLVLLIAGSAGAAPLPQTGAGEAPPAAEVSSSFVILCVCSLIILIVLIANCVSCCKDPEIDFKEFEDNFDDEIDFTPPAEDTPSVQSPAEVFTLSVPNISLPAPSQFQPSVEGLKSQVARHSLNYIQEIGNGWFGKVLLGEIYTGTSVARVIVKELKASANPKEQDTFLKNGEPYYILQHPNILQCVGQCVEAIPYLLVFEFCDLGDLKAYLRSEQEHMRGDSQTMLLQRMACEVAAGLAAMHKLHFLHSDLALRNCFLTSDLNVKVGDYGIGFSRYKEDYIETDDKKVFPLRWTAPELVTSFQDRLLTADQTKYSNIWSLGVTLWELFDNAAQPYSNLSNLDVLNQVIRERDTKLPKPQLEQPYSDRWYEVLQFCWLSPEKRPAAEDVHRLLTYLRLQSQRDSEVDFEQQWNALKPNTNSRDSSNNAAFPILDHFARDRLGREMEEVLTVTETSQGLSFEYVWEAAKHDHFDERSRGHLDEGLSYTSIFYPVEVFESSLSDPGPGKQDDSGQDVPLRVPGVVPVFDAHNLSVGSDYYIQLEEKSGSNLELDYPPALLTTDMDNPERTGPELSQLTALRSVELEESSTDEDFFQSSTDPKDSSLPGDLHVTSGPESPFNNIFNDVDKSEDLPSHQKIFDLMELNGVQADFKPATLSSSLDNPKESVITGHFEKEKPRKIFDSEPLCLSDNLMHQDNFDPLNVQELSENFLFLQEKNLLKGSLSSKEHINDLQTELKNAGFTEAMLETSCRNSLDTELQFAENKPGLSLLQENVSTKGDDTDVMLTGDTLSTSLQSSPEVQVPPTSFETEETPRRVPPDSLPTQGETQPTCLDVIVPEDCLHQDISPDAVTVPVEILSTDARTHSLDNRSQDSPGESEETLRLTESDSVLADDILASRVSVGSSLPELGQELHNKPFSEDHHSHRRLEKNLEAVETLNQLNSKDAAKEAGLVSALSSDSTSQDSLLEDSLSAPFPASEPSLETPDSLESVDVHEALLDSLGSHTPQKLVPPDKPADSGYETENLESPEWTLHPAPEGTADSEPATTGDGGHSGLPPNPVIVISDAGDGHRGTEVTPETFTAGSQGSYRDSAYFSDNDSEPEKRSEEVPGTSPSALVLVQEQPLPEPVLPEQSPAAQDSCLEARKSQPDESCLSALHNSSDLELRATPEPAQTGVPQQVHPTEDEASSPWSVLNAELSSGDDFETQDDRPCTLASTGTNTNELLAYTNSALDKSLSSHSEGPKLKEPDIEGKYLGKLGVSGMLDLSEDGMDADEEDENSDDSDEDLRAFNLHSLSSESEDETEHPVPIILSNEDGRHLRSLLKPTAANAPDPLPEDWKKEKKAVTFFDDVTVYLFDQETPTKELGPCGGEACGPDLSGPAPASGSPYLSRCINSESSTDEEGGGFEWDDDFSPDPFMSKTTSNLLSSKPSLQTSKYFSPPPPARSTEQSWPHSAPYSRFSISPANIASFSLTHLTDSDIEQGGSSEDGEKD
UniProt Q12851: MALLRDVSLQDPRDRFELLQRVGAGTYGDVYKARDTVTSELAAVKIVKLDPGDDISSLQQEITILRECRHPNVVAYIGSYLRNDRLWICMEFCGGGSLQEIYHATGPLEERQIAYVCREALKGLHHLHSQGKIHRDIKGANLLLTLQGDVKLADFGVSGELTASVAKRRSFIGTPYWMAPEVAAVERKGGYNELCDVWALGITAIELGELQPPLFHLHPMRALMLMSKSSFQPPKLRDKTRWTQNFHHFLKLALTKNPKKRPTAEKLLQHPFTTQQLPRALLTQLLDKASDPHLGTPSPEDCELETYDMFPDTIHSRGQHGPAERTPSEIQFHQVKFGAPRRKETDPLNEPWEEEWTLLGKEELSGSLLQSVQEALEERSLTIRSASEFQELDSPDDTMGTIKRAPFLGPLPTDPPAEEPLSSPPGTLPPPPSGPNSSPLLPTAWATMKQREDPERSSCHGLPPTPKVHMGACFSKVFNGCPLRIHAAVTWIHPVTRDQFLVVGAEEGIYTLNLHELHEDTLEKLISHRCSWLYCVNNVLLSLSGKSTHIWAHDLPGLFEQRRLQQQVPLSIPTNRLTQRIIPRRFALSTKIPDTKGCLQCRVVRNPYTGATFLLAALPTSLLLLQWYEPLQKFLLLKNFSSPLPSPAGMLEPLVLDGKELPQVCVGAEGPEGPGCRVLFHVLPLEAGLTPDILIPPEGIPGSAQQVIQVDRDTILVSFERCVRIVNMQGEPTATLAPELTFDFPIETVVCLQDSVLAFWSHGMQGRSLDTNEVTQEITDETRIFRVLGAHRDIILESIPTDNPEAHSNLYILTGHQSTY
UniProt P28482, whole entry: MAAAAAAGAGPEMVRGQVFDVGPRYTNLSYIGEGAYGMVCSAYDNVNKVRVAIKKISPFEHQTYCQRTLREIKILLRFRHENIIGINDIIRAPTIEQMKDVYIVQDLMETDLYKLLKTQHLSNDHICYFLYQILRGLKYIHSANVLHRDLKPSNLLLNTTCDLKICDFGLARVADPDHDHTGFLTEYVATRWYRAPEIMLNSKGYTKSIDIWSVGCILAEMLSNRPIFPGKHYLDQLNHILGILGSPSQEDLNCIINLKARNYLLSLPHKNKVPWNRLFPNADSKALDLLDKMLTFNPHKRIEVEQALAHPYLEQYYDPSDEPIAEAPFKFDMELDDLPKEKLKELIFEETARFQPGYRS
UniProt P31152, whole entry: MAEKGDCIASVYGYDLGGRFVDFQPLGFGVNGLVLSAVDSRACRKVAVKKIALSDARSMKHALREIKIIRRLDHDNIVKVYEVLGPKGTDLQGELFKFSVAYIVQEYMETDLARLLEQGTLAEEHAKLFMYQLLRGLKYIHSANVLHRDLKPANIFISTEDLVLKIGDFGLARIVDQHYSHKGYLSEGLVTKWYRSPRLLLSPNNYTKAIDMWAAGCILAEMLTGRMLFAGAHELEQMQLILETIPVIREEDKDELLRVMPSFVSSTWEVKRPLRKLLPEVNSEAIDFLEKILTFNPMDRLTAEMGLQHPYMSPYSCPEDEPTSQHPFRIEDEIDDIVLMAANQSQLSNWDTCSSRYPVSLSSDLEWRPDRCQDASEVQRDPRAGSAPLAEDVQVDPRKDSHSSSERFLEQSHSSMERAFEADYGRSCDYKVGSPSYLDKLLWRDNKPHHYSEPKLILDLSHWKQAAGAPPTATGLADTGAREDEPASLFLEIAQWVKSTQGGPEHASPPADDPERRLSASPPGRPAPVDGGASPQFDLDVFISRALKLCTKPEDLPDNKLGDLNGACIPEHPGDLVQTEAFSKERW
UniProt P49137, whole entry, looked up: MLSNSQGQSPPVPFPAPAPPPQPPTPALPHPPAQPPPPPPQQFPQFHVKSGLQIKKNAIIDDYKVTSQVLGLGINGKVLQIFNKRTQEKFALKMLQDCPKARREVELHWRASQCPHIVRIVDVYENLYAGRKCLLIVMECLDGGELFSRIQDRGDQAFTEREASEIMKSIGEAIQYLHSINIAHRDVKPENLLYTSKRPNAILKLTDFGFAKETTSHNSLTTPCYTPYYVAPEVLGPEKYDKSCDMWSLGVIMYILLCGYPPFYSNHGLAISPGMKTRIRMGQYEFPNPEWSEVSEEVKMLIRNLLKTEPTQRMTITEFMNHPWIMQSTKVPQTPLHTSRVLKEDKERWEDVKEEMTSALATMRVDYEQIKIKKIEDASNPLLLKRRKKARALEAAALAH
UniProt Q9BUB5: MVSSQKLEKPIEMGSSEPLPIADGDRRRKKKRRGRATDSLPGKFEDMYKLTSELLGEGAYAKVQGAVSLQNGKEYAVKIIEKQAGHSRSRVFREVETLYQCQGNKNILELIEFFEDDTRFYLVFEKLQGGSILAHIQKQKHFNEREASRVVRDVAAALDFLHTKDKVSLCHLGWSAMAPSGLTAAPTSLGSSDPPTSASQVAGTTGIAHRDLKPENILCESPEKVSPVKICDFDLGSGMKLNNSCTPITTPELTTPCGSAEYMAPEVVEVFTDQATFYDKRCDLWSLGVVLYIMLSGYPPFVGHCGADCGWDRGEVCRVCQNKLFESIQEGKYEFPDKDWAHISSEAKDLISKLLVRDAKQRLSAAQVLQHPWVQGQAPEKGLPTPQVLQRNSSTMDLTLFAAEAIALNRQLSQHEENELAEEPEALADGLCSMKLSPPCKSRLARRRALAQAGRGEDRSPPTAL
UniProt Q16620, whole entry, looked up: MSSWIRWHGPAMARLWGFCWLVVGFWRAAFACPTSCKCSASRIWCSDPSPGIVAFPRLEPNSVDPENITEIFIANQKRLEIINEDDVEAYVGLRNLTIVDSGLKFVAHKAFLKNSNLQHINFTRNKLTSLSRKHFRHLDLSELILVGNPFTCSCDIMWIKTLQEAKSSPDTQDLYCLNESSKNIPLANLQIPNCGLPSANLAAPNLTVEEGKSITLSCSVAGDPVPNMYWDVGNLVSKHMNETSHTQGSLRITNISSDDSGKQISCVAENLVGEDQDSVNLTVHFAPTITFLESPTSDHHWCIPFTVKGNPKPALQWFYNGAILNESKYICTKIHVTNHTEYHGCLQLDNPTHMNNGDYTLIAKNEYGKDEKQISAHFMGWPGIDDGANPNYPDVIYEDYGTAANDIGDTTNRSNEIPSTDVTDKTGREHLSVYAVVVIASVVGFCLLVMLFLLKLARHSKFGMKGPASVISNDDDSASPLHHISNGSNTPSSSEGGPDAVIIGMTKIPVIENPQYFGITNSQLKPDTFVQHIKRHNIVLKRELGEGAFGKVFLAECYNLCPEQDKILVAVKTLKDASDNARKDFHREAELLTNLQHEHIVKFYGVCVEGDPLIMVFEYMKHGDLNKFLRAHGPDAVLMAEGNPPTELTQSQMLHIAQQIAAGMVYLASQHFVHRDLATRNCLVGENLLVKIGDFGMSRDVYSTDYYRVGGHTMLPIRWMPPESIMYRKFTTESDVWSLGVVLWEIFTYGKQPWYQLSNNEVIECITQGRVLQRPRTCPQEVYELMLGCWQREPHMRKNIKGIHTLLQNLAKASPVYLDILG
UniProt Q16288, whole entry, looked up: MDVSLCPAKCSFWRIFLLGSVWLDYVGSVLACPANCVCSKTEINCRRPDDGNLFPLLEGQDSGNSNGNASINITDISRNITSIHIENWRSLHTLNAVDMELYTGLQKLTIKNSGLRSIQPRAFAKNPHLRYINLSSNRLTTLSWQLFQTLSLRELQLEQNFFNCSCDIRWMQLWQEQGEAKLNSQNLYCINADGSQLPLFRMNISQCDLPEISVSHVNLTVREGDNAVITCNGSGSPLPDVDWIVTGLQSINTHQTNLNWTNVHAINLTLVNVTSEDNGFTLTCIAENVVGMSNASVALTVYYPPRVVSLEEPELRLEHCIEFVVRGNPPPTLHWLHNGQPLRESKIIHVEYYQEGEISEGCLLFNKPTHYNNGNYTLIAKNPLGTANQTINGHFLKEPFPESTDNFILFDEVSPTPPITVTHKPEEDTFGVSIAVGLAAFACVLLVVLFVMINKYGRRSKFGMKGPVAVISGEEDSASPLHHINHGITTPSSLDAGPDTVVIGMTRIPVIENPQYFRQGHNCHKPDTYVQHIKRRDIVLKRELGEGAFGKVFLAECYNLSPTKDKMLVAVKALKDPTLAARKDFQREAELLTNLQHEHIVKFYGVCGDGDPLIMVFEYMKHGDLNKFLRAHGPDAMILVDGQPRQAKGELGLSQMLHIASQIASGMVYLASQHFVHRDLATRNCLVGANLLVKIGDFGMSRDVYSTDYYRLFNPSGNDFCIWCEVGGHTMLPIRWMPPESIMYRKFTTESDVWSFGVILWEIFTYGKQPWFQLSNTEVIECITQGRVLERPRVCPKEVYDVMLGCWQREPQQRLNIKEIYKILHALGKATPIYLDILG
UniProt O96013: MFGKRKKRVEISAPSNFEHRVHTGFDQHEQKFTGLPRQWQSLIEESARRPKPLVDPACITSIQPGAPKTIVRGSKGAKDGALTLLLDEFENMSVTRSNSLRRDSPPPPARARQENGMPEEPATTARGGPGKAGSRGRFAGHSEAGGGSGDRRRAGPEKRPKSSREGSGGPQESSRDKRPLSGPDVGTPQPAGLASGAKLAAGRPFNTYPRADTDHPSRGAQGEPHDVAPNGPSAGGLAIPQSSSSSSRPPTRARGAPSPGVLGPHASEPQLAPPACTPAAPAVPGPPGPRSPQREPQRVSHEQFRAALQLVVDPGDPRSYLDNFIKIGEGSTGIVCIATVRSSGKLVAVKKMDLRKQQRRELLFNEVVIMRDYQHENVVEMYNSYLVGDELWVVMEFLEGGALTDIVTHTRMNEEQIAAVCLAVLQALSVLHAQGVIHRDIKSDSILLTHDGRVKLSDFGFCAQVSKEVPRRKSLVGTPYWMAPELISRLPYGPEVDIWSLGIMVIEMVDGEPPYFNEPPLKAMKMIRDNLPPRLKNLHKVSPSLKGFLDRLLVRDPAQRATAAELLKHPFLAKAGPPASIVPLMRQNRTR

How the values were obtained:
Assay in all cases: kinase-Nluc reporter destabilization hit call (1 = scored as downregulated) (binary); higher = compound decreases kinase abundance
Details in all cases: K562; 2-18 h
IRAK3 = IRAK3 (UniProt Q9Y616)
JAK1 = JAK1 (UniProt P23458)
LCK = LCK (UniProt P06239)
LIMK1 = LIMK1 (UniProt P53667)
LIMK2 = LIMK2 (UniProt P53671)
LMTK2 = LMTK2 (UniProt Q8IWU2)
LYN = LYN (UniProt P07948)
MAP2K1 = MAP2K1 (UniProt Q02750)
MAP2K2 = MAP2K2 (UniProt P36507)
MAP4K2 = MAP4K2 (UniProt Q12851)
MAPK1 = MAPK1 (UniProt P28482)
MAPK4 = MAPK4 (UniProt P31152)
MAPKAPK2 = MAPKAPK2 (UniProt P49137)
MKNK1 = MKNK1 (UniProt Q9BUB5)
NTRK2 = NTRK2 (UniProt Q16620)
NTRK3 = NTRK3 (UniProt Q16288)
PAK4 = PAK4 (UniProt O96013)
PBK = PBK (UniProt Q96KB5)
PDGFRB = PDGFRB (UniProt P09619)
PDK1 = PDK1 (UniProt Q15118)

Measured: kinase-Nluc reporter destabilization hit call

N#Cc1c2nc3ccccc3nc2n2ccc(NC(=O)c3cccs3)cc12 (10 µM)
inactive: IRAK3 = 0 | JAK1 = 0 | LCK 0 | LIMK1 = 0 | LIMK2 = 0 | LMTK2 = 0 | LYN 0 | MAP2K1 = 0 | MAP2K2 = 0 | MAP4K2 = 0 | MAPK1 = 0 | MAPK4 = 0 | MAPKAPK2 = 0 | MKNK1 = 0 | NTRK2 = 0 | NTRK3 = 0 | PAK4 = 0 | PBK 0 | PDGFRB 0 | PDK1 = 0

c1ccc(-c2nc(=NCCN3CCOCC3)sn2-c2ccccc2)cc1 [VP3.15 (dihydrobromide)] (10 µM)
inactive: IRAK3 = 0 | JAK1 = 0 | LCK 0 | LIMK1 = 0 | LIMK2 = 0 | LMTK2 = 0 | LYN 0 | MAP2K1 = 0 | MAP2K2 = 0 | MAP4K2 = 0 | MAPK1 = 0 | MAPK4 = 0 | MAPKAPK2 = 0 | MKNK1 = 0 | NTRK2 = 0 | NTRK3 = 0 | PAK4 = 0 | PBK 0 | PDGFRB 0 | PDK1 = 0

Cc1c(-c2ccc(C(N)=O)c3[nH]c4cc(C(C)(C)O)ccc4c23)cccc1-n1cnc2ccccc2c1=O (2.5 µM)
inactive: IRAK3 = 0 | JAK1 = 0 | LCK 0 | LIMK1 = 0 | LIMK2 = 0 | LMTK2 = 0 | LYN 0 | MAP2K1 = 0 | MAP2K2 = 0 | MAP4K2 = 0 | MAPK1 = 0 | MAPK4 = 0 | MAPKAPK2 = 0 | MKNK1 = 0 | NTRK2 = 0 | NTRK3 = 0 | PAK4 = 0 | PBK 0 | PDGFRB 0 | PDK1 = 0

COCCNc1cc(NC(=O)N2CCCc3cc(CN4CCN(C)CC4=O)c(C=O)nc32)ncc1C#N [Roblitinib] (10 µM)
inactive: IRAK3 = 0 | JAK1 = 0 | LCK 0 | LIMK1 = 0 | LIMK2 = 0 | LMTK2 = 0 | LYN 0 | MAP2K1 = 0 | MAP2K2 = 0 | MAP4K2 = 0 | MAPK1 = 0 | MAPK4 = 0 | MAPKAPK2 = 0 | MKNK1 = 0 | NTRK2 = 0 | NTRK3 = 0 | PAK4 = 0 | PBK 0 | PDGFRB 0 | PDK1 = 0

CCCCCCCC/C=C\CCCCCCCCCCCC(=O)O [Erucic acid] (10 µM)
inactive: IRAK3 = 0 | JAK1 = 0 | LCK 0 | LIMK1 = 0 | LIMK2 = 0 | LMTK2 = 0 | LYN 0 | MAP2K1 = 0 | MAP2K2 = 0 | MAP4K2 = 0 | MAPK1 = 0 | MAPK4 = 0 | MAPKAPK2 = 0 | MKNK1 = 0 | NTRK2 = 0 | NTRK3 = 0 | PAK4 = 0 | PBK 0 | PDGFRB 0 | PDK1 = 0

Cc1ccn2c(C(=O)C(=O)c3ccccc3)c(-c3ccccc3)nc2c1 (10 µM)
inactive: IRAK3 = 0 | JAK1 = 0 | LCK 0 | LIMK1 = 0 | LIMK2 = 0 | LMTK2 = 0 | LYN 0 | MAP2K1 = 0 | MAP2K2 = 0 | MAP4K2 = 0 | MAPK1 = 0 | MAPK4 = 0 | MAPKAPK2 = 0 | MKNK1 = 0 | NTRK2 = 0 | NTRK3 = 0 | PAK4 = 0 | PBK 0 | PDGFRB 0 | PDK1 = 0

COc1cc2ncnc(Nc3ccccc3)c2cc1OC (10 µM)
inactive: IRAK3 = 0 | JAK1 = 0 | LCK 0 | LIMK1 = 0 | LIMK2 = 0 | LMTK2 = 0 | LYN 0 | MAP2K1 = 0 | MAP2K2 = 0 | MAP4K2 = 0 | MAPK1 = 0 | MAPK4 = 0 | MAPKAPK2 = 0 | MKNK1 = 0 | NTRK2 = 0 | NTRK3 = 0 | PAK4 = 0 | PBK 0 | PDGFRB 0 | PDK1 = 0

C[C@@H]1CN(c2cc(-c3n[nH]c4ccc(OC5(C)CC5)cc34)ncn2)C[C@H](C)O1 (10 µM)
inactive: IRAK3 = 0 | JAK1 = 0 | LCK 0 | LIMK1 = 0 | LIMK2 = 0 | LMTK2 = 0 | LYN 0 | MAP2K1 = 0 | MAP2K2 = 0 | MAP4K2 = 0 | MAPK1 = 0 | MAPK4 = 0 | MAPKAPK2 = 0 | MKNK1 = 0 | NTRK2 = 0 | NTRK3 = 0 | PAK4 = 0 | PBK 0 | PDGFRB 0 | PDK1 = 0

C[C@H](Nc1ncnc2nc[nH]c12)c1cc2cccc(Cl)c2c(=O)n1-c1ccccc1 [Duvelisib] (10 µM)
inactive: IRAK3 = 0 | JAK1 = 0 | LCK 0 | LIMK1 = 0 | LIMK2 = 0 | LMTK2 = 0 | LYN 0 | MAP2K1 = 0 | MAP2K2 = 0 | MAP4K2 = 0 | MAPK1 = 0 | MAPK4 = 0 | MAPKAPK2 = 0 | MKNK1 = 0 | NTRK2 = 0 | NTRK3 = 0 | PAK4 = 0 | PBK 0 | PDGFRB 0 | PDK1 = 0

C#Cc1cccc(Nc2ncnc3cc(OC)c(OCCCCCCC(=O)NO)cc23)c1 (2.5 µM)
inactive: IRAK3 = 0 | JAK1 = 0 | LCK 0 | LIMK1 = 0 | LIMK2 = 0 | LMTK2 = 0 | LYN 0 | MAP2K1 = 0 | MAP2K2 = 0 | MAP4K2 = 0 | MAPK1 = 0 | MAPK4 = 0 | MAPKAPK2 = 0 | MKNK1 = 0 | NTRK2 = 0 | NTRK3 = 0 | PAK4 = 0 | PBK 0 | PDGFRB 0 | PDK1 = 0

Taken from the listing (3 entries):
COc1cc2ncnc(Nc3ccccc3)c2cc1OC (10 µM)
inactive: IRAK3 = 0 | JAK1 = 0 | LCK 0 | LIMK1 = 0 | LIMK2 = 0 | LMTK2 = 0 | LYN 0 | MAP2K1 = 0 | MAP2K2 = 0 | MAP4K2 = 0 | MAPK1 = 0 | MAPK4 = 0 | MAPKAPK2 = 0 | MKNK1 = 0 | NTRK2 = 0 | NTRK3 = 0 | PAK4 = 0 | PBK 0 | PDGFRB 0 | PDK1 = 0

C[C@@H]1CN(c2cc(-c3n[nH]c4ccc(OC5(C)CC5)cc34)ncn2)C[C@H](C)O1 (10 µM)
inactive: IRAK3 = 0 | JAK1 = 0 | LCK 0 | LIMK1 = 0 | LIMK2 = 0 | LMTK2 = 0 | LYN 0 | MAP2K1 = 0 | MAP2K2 = 0 | MAP4K2 = 0 | MAPK1 = 0 | MAPK4 = 0 | MAPKAPK2 = 0 | MKNK1 = 0 | NTRK2 = 0 | NTRK3 = 0 | PAK4 = 0 | PBK 0 | PDGFRB 0 | PDK1 = 0

C[C@H](Nc1ncnc2nc[nH]c12)c1cc2cccc(Cl)c2c(=O)n1-c1ccccc1 [Duvelisib] (10 µM)
inactive: IRAK3 = 0 | JAK1 = 0 | LCK 0 | LIMK1 = 0 | LIMK2 = 0 | LMTK2 = 0 | LYN 0 | MAP2K1 = 0 | MAP2K2 = 0 | MAP4K2 = 0 | MAPK1 = 0 | MAPK4 = 0 | MAPKAPK2 = 0 | MKNK1 = 0 | NTRK2 = 0 | NTRK3 = 0 | PAK4 = 0 | PBK 0 | PDGFRB 0 | PDK1 = 0

Carrying on.

Cc1cnc(-c2ccc(-c3ccc(NC(=O)Nc4cccc(C(F)(F)F)c4)cc3F)c3c2C(=O)NC3)[nH]1 (10 µM)
inactive: IRAK3 = 0 | JAK1 = 0 | LCK 0 | LIMK1 = 0 | LIMK2 = 0 | LMTK2 = 0 | LYN 0 | MAP2K1 = 0 | MAP2K2 = 0 | MAP4K2 = 0 | MAPK1 = 0 | MAPK4 = 0 | MAPKAPK2 = 0 | MKNK1 = 0 | NTRK2 = 0 | NTRK3 = 0 | PAK4 = 0 | PBK 0 | PDGFRB 0 | PDK1 = 0

FC(F)(F)c1ccc(/C=C/c2nc(COc3ccc(CCCCn4ccnn4)cc3)co2)cc1 [Mubritinib] (10 µM)
inactive: IRAK3 = 0 | JAK1 = 0 | LCK 0 | LIMK1 = 0 | LIMK2 = 0 | LMTK2 = 0 | LYN 0 | MAP2K1 = 0 | MAP2K2 = 0 | MAP4K2 = 0 | MAPK1 = 0 | MAPK4 = 0 | MAPKAPK2 = 0 | MKNK1 = 0 | NTRK2 = 0 | NTRK3 = 0 | PAK4 = 0 | PBK 0 | PDGFRB 0 | PDK1 = 0

Cc1ccc(-c2csc3ncnc(SCCC(=O)O)c23)cc1 (10 µM)
inactive: IRAK3 = 0 | JAK1 = 0 | LCK 0 | LIMK1 = 0 | LIMK2 = 0 | LMTK2 = 0 | LYN 0 | MAP2K1 = 0 | MAP2K2 = 0 | MAP4K2 = 0 | MAPK1 = 0 | MAPK4 = 0 | MAPKAPK2 = 0 | MKNK1 = 0 | NTRK2 = 0 | NTRK3 = 0 | PAK4 = 0 | PBK 0 | PDGFRB 0 | PDK1 = 0

O=C(O)c1cc(=O)c2c(OCC(O)COc3cccc4oc(C(=O)O)cc(=O)c34)cccc2o1 [Cromolyn (sodium)] (10 µM)
inactive: IRAK3 = 0 | JAK1 = 0 | LCK 0 | LIMK1 = 0 | LIMK2 = 0 | LMTK2 = 0 | LYN 0 | MAP2K1 = 0 | MAP2K2 = 0 | MAP4K2 = 0 | MAPK1 = 0 | MAPK4 = 0 | MAPKAPK2 = 0 | MKNK1 = 0 | NTRK2 = 0 | NTRK3 = 0 | PAK4 = 0 | PBK 0 | PDGFRB 0 | PDK1 = 0

Cc1cccc2c3c(ccc12)C(=O)C1=C(OCC1C)C3=O (stereo not given) [Dihydroisotanshinone I] (2.5 µM)
inactive: IRAK3 = 0 | JAK1 = 0 | LCK 0 | LIMK1 = 0 | LIMK2 = 0 | LMTK2 = 0 | LYN 0 | MAP2K1 = 0 | MAP2K2 = 0 | MAP4K2 = 0 | MAPK1 = 0 | MAPK4 = 0 | MAPKAPK2 = 0 | MKNK1 = 0 | NTRK2 = 0 | NTRK3 = 0 | PAK4 = 0 | PBK 0 | PDGFRB 0 | PDK1 = 0

CC(C)(C)n1nc(Cc2ccccc2O)c2c(N)ncnc21 (10 µM)
inactive: IRAK3 = 0 | JAK1 = 0 | LCK 0 | LIMK1 = 0 | LIMK2 = 0 | LMTK2 = 0 | LYN 0 | MAP2K1 = 0 | MAP2K2 = 0 | MAP4K2 = 0 | MAPK1 = 0 | MAPK4 = 0 | MAPKAPK2 = 0 | MKNK1 = 0 | NTRK2 = 0 | NTRK3 = 0 | PAK4 = 0 | PBK 0 | PDGFRB 0 | PDK1 = 0

Cn1cc(-c2cnc3cnn(S(=O)(=O)c4cnc5ccc(-c6cnn(C)c6)cn45)c3c2)cn1 [Glumetinib] (10 µM)
inactive: IRAK3 = 0 | JAK1 = 0 | LCK 0 | LIMK1 = 0 | LIMK2 = 0 | LMTK2 = 0 | LYN 0 | MAP2K1 = 0 | MAP2K2 = 0 | MAP4K2 = 0 | MAPK1 = 0 | MAPK4 = 0 | MAPKAPK2 = 0 | MKNK1 = 0 | NTRK2 = 0 | NTRK3 = 0 | PAK4 = 0 | PBK 0 | PDGFRB 0 | PDK1 = 0
